Data taken from PubChem BioAssay AID1347076 (National Center for Advancing Translational Sciences (NCATS), 2019).
About 13,000 (3.2%) of roughly 400,000 compounds were called active. Inconclusive means that the source gave no clear call. Such entries were picked first, then a sample of the others. Calls follow the shape of the dose curve; as a rule, active = well fitted cell-killing curve with a large enough effect; inconclusive = small, poorly fitted or top-dose-only effect, or effect the other way; inactive = flat fitted curve, though single readings scatter. A potency beside an inconclusive call is a rough fit, not a confirmed value.
% is scaled to controls: 0 for no effect and ±100 for the full control effect; potency is read from the fitted curve at half-maximal effect.

Assay: qHTS assay for MDR1-selective chemotherapeutics: Primary screen using the drug-selected MDR subline cells KB-V1; also: nearly all actives have a fitted effect of over 60% in size
Conditions: KB-V1 MDR cells viability, CellTiter-Glo, 72 h; activity change, negative = cytotoxicity: at 46.1 µM (top of the series)
How it was run: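 In this primary screen, KB-V1 cells overexpressing P-gp are incubated with library compounds (lowest to highest concentration) for 72 h at 37 degrees C before a luminescent ATP viability read.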
In the case of Cc1ccc(NC(=S)N(CCN(C)C)Cc2cc3cc(C)cc(C)c3[nH]c2=O)cc1, the Potency was inconclusive: 25.9 µM [cytotoxic, partial curve, poor fit].
With Cc1cn([C@H]2C[C@H](O)[C@@H](CNCc3cnc(N4CCOCC4)s3)O2)c(=O)[nH]c1=O the Potency was inconclusive: 11.6 µM [rising, partial curve, poor fit].
With Cc1ccccc1NC(=O)CN1C(=O)NC2(CCCCCCC2)C1=O the Potency was inconclusive: 18.4 µM [cytotoxic, single point].
For O=S(=O)(CCSc1nc2ccccc2o1)Cc1ccccc1, the Potency was inconclusive: 18.4 µM [cytotoxic, single point].
For CC(C)c1ccc(CNC(=O)C2(C)CCCN2C)cc1 (stereo not given), the “activity change, negative = cytotoxicity” value was inactive: 5.05%.
For Cc1ccc(C(=O)N/C(=C/c2ccco2)C(=O)N2CCCCCC2)cc1, the Potency was inconclusive: 13 µM [cytotoxic, partial curve].
In the case of c1ccc(-c2cc3c(N4CCCCC4)ncnc3s2)cc1, the “activity change, negative = cytotoxicity” value was inactive: -26.8%.
In the case of Cc1ccccc1OCC(=O)Nc1ccc(C)c(S(=O)(=O)N2CCCCCC2)c1, the Potency was active: 11.6 µM.
With CN(CC(=O)Nc1cccc(S(=O)(=O)N2CCCC2)c1)CC(=O)Nc1ccc(F)c(F)c1F the Potency was active: 20.6 µM.
With CC(C)COC(=O)C1C(=O)CC(C)(O)C(C(=O)OCC(C)C)C1c1cccnc1 (stereo not given) the Potency was active: 16.4 µM.
For O=c1n(S(=O)(=O)c2cccc3cccnc23)c2ccccc2n1S(=O)(=O)c1cccc2cccnc12, the Potency was inconclusive: 18.4 µM [cytotoxic, partial curve].
With CCCCOC(=O)n1c(SCC(=O)N(C)C)nc2ccccc21 the Potency was active: 16.4 µM.
In the case of CC(C)CCNC(=O)c1ccc2c(c1)ncn2C1CCCC1, the “activity change, negative = cytotoxicity” value was inactive: -9.59%.
In the case of COCC(=O)Nc1ccc(N2CCOCC2)c(S(=O)(=O)Nc2ccccc2OC)c1, the activity change, negative = cytotoxicity was inconclusive: -33.1% [cytotoxic].
For O=c1[nH]c(N2CCOCC2)nc2c1CCCC2, the Potency was inconclusive: 14.6 µM [rising, single point].
For Cc1ccccc1CNC(=O)c1[nH]c(C(F)(F)F)nc1-c1ccccc1, the “activity change, negative = cytotoxicity” value was inactive: 9.85%.
With CCC[C@@H]1C[C@@]1(CCC)[C@@H](NP(=O)(c1ccccc1)c1ccccc1)c1ccc(C(=O)OC)cc1 the Potency was inconclusive: 23.1 µM [cytotoxic, single point].
For CCOC(=O)N1CCN(C(=O)C(=O)Nc2sc3c(c2C#N)CC(C)(C)OC3)CC1, the Potency was inconclusive: 0.184 µM [cytotoxic, full curve].
For Cc1[nH]c2ccccc2c1C(=O)COC(=O)C1CC(=O)N(Cc2ccccc2)C1 (stereo not given), the “activity change, negative = cytotoxicity” value was inactive: 13.1%.
In the case of Nc1cc2nc[nH]c2cc1N, the Potency was inconclusive: 20.6 µM [rising, partial curve, poor fit].
In the case of CC(C)c1ccc(-c2noc(C3CCCN(C(=O)c4ccc(F)cc4F)C3)n2)cc1 (stereo not given), the Potency was inconclusive: 8.2 µM [cytotoxic, partial curve].
For CCCCOc1ccc(C(=O)NCC(=O)NCC(=O)OCC)cc1, the Potency was inconclusive: 18.4 µM [cytotoxic, single point].
In the case of CCCCOn1c(C)c(C(C)=O)c2c3no[n+]([O-])c3ccc21, the Potency was inconclusive: 6.51 µM [cytotoxic, partial curve].
In the case of COc1cc(S(=O)(=O)N(Cc2ccccc2)CC2CCCO2)ccc1-n1cnnn1 (stereo not given), the Potency was inconclusive: 7.31 µM [cytotoxic, partial curve].
For C[C@@H]1C(=O)O[C@H]2[C@H](O)[C@@]34[C@H]5C[C@@H](C(C)(C)C)[C@]36[C@@H](OC(=O)[C@@H]6O)O[C@@]4(C(=O)O5)[C@@]12O, the “activity change, negative = cytotoxicity” value was inactive: 12.2%.
For COc1ccc(-c2cc(C(=O)NCCCN3CCCC3=O)c3ccccc3n2)cc1, the Potency was inconclusive: 5.17 µM [cytotoxic, partial curve, poor fit].
In the case of CCOC(=O)C1=C(C)NC(C)=C(C(=O)OCC)C1c1ccc(Br)o1, the Potency was inconclusive: 23.1 µM [cytotoxic, single point].
With COc1cccc(C(=O)/C=C/Nc2ccc(S(=O)(=O)Nc3ccc(C(C)=O)cc3)cc2)c1 the Potency was inconclusive: 29.1 µM [cytotoxic, single point].
In the case of CCCn1c(=O)[nH]c2ccccc21, the “activity change, negative = cytotoxicity” value was inactive: 23.6%.
With Cn1cc(S(=O)(=O)N2CCc3ccccc32)cc1C(=O)NC(C)(C)C the Potency was inconclusive: 7.31 µM [cytotoxic, partial curve].
In the case of CC1=C(C(=O)OCC2CCCO2)C(c2ccc(Cl)cc2)NC(=O)N1 (stereo not given), the Potency was inconclusive: 20.6 µM [cytotoxic, partial curve].
With COc1cc(/C=C/C(=O)c2ccc(C)cc2)ccc1OCC#N the Potency was active: 14.6 µM.
With CCOC(=O)c1c(N)sc(C(O)(C(F)(F)F)C(F)(F)F)c1-c1ccc(F)cc1 the “activity change, negative = cytotoxicity” value was inactive: -13.8%.
With CC(C)(C)C1CCC(OCC(O)CN2CCN(c3ccccc3)CC2)CC1 (stereo not given) the Potency was inconclusive: 18.4 µM [cytotoxic, single point].
With CC(=O)Nc1nonc1-c1nnc(SCC(=O)Nc2ccc(C)c(Cl)c2)n1C the “activity change, negative = cytotoxicity” value was inactive: -20.5%.
In the case of CCc1ccc(CN2CCN(S(=O)(=O)Cc3ccccc3)CC2)cc1, the Potency was active: 10.3 µM.
With CN(Cc1ccccc1)C(=O)c1nc[nH]c1C(=O)N1CCN(c2ccccc2)CC1 the “activity change, negative = cytotoxicity” value was inactive: 9.85%.
For Cc1ccc(C)c(S(=O)(=O)N(C)Cc2cccs2)c1, the “activity change, negative = cytotoxicity” value was inactive: 9.21%.
With COc1ccc(-c2nnc(-c3ccccc3)o2)cc1OC the “activity change, negative = cytotoxicity” value was inactive: -25.8%.
With CCOc1ccc(NC(=O)CN2C(=O)CSc3ccc(S(=O)(=O)N4CCOCC4)cc32)cc1 the Potency was inconclusive: 7.31 µM [cytotoxic, partial curve].
For N#Cc1c(NC(=O)c2ccc([N+](=O)[O-])o2)sc2c1CCC2, the Potency was active: 18.4 µM.
In the case of Cc1ccc(S(=O)(=O)c2cn(CC(=O)Nc3ccc(Cl)cc3)c3ccc(F)cc3c2=O)cc1C, the Potency was inconclusive: 29.1 µM [rising, single point].
In the case of CCOC(=O)C1(S(=O)(=O)c2ccc(Cl)cc2)CCN(Cc2ccc(C)cc2)CC1, the Potency was active: 20.6 µM.
For CCOC(=O)c1ccc(NC(=O)CCc2nc3cccnc3n2Cc2cccs2)cc1, the Potency was inconclusive: 32.6 µM [cytotoxic, single point].
With CCOC(=O)CCC(=O)N1CCOCCOCCN(C(=O)CCC(=O)OCC)CCOCCOCC1 the Potency was inconclusive: 20.6 µM [rising, partial curve, poor fit].
